Laboratory results reported in patent publication EP0415456A2, “Xanthine compounds” (priority 1989, dated 1991).
Some of these results come from one statement about several compounds together.

What was measured:
[1] = tested on: glycerol-induced renal failure model; test: renal-protecting effect (glycerol-induced renal failure model); format: in vivo; details: male Wistar rats; for suppression of increases of the serum creatinine and of urine-nitrogen: 0.01 - 10 mg/kg i.p., 24 hours after 50% glycerol s.c. (p < 0.05); for pathological examination of removed kidneys: state of kidneys: i.p., left kidney removed 24 hours after 50% glycerol s.c.
Description: A renal failure is a state wherein the renal function is lowered and the homeostasis of a body fluid can be no more maintained. It is known that an acute renal failure characteristic of uriniferous tubule disorder is caused by subcutaneous or intramuscular injection of glycerol to rats [Can. J. Physiol.
Male Wistar rats were kept deprived or water for 18 hours, and served for the test. A test compound was intraperitoneally administered to the rats (dosage: 1 mℓ/kg) and the rats were anesthetized with ether and 50% glycerol was subcutaneously administered (dosage: 0.8mℓ/100g) to the rats, pinching the dorsal skin. Twenty four hours after the administration of glycerol, the rats were anesthetized with ether and 5 mℓ of blood were collected from the abdominal aorta. The collected blood was allowed to stand for 30 minutes or longer and then centrifuged at 3,000 rpm for 10 minutes, and the amounts of the serum creatinine and urine-nitrogen (UN) contained in the serum were determined by auto analyzer (Olympus AU510) or measured by a creatinine test Wako (Jaffé method) and UN Test Wako (diacetylmonooxime direct method). Both are manufactured by Wako Pure Chemicals Co.
On the other hand, the left kidneys of the blood-sampled rats were removed and placed in formalin-filled vial bottles, and used as samples for the pathological examination.

male dd-strain mice = test: acute toxicity test; format: in vivo; details: 300 mg/kg orally administered, observed 7 days after administration
Description: […]. The Minimum lethal dose (MLD) of the compounds was determined by observing whether or not the mice were alive after 7 days of the administration.

CCCn1c(=O)c2[nH]c([C@H]3C[C@@H]4C=C[C@@H]3C4)nc2n(CCC)c1=O (relative stereo) [Compound 1, 8-[(1R*,4S*,5S*)-2-Bicyclo[2.2.1]hepten-5-yl]-1,3-dipropylxanthine]
suppression of increases of the serum creatinine and of urine-nitrogen [1]: significantly suppressed | pathological examination of removed kidneys: state of kidneys [1]: significantly improved

CCCn1c(=O)c2[nH]c([C@@H]3C[C@@H]4C=C[C@@H]3C4)nc2n(CCC)c1=O (relative stereo) [Compound 2, 8-[(1R*,4S*,5R*)-2-bicyclo[2.2.1]hepten-5-yl]-1,3-dipropylxanthine]
suppression of increases of the serum creatinine and of urine-nitrogen [1]: significantly suppressed | pathological examination of removed kidneys: state of kidneys [1]: significantly improved

CCCn1c(=O)c2[nH]c([C@H]3C[C@H]4CC[C@@H]3C4)nc2n(CCC)c1=O (relative stereo) [Compound 3, 8-[(1R*,2S*,5S*)-Bicyclo[2,2,1]heptan-2-yl]-1,3-dipropylxanthine]
suppression of increases of the serum creatinine and of urine-nitrogen [1]: significantly suppressed | pathological examination of removed kidneys: state of kidneys [1]: significantly improved

CCCn1c(=O)c2[nH]c(C3CC4CCC3C4)nc2n(CCC)c1=O (stereo not drawn) [Compound 4, 8-[(1R*,2R*,5S*)-bicyclo[2.2.1)heptan-2-yl]-1,3-dipropylxanthine]
suppression of increases of the serum creatinine and of urine-nitrogen [1]: significantly suppressed | pathological examination of removed kidneys: state of kidneys [1]: significantly improved

CCCn1c(=O)c2[nH]c(C(C)Cc3ccncc3)nc2n(CCC)c1=O (stereo not shown) [Compound 7, 8-[1-methyl-2-(4-pyridyl)ethyl]-1,3-dipropylxanthine]
Minimum lethal dose (MLD) (male dd-strain mice): more than 300 mg/kg

CCCn1c(=O)c2[nH]c(C(C)Cc3csc(C)n3)nc2n(CCC)c1=O (stereo not shown) [Compound 8, 8-[1-Methyl-2-(2-methylthiazol-4-yl)ethyl]-1,3-dipropylxanthine]
Minimum lethal dose (MLD) (male dd-strain mice): more than 300 mg/kg

CCCn1c(=O)c2[nH]c(-c3cc4ccccc4s3)nc2n(CCC)c1=O [Compound 9, 8-(Benzo[b]thiophen-2-yl)-1,3-dipropylxanthine]
Minimum lethal dose (MLD) (male dd-strain mice): more than 300 mg/kg

CCCn1c(=O)c2nc(-c3cc4ccccc4o3)[nH]c2n(CCC)c1=O [Compound 10, 8-(Benzo[b]furan-2-yl)-1,3-dipropylxanthine]
Minimum lethal dose (MLD) (male dd-strain mice): more than 300 mg/kg

CCCn1c(=O)c2[nH]c(C3=C(C)c4ccccc4C3)nc2n(CCC)c1=O [Compound 11, 8-(3-Methylinden-2-yl)-1,3-dipropylxanthine]
Minimum lethal dose (MLD) (male dd-strain mice): more than 300 mg/kg
